# Structures can show the parent of a compound that is named as a salt. The list shows a part of the results. This data set is noisy: repeats of one test often differ as much as different tests do.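 The human kidney-derived cells carry a stably integrated construct of eight TEAD-binding elements driving luciferase, read by luminescence in a drug-repurposing library screen. A compound counts as a hit when its signal is more than five robust Z scores above the plate mean.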
# System: HEK293A TEAD-LUC reporter
# Assay: TEAD-luciferase reporter activity (YAP activation), robust Z score vs plate; higher = stronger YAP/TEAD activation
# Details: 24 h
Compound,TEAD-luciferase reporter activity (compound concentration: 200 nM),TEAD-luciferase reporter activity (compound concentration: 2 uM),TEAD-luciferase reporter activity (compound concentration: 10 uM)
CCOCCn1nc(C(=O)NS(=O)(=O)CC)c2nc(N(C)CC)nc(Nc3cc(C)ccn3)c21,inactive: -1.41,inactive: 0.402,inactive: -0.538
CN1C(=S)SC(c2ccccc2)N(C)C1c1ccccc1 (stereo unspecified),inactive: -1.88,inactive: -1.49,inactive: -1.78
O=c1[nH]c(CCl)nc2sc3c(c12)CCCC3,inactive: -1.18,inactive: -0.3,inactive: 0.912
c1ccc2c(c1)CCCc1cc(NCCN3CCOCC3)nnc1-2,inactive: -0.473,inactive: -0.265,inactive: -0.0414
COc1ccc(N(Cc2cccnc2)c2cccc(C(=O)O)c2)cc1OC1CCCC1,inactive: 0.405,inactive: 0.948,inactive: 1.46
Cc1cn(C2CC(N=[N+]=[N-])C(COP(=O)(O)OCC3CCC(n4cnc5c(=O)[nH]cnc54)O3)O2)c(=O)[nH]c1=O (stereo unspecified),inactive: -1.41,inactive: 1.96,inactive: 2.18
CN(C)CCSc1ccc(/C=c2\[nH]c(=O)/c(=C/c3ccccc3)[nH]c2=O)s1,inactive: 4.33,inactive: 1.02,active: 12.2
O=C(O)Cc1ccc2c(c1)OCc1ccccc1C2=O,inactive: 0.0144,inactive: 0.988,inactive: 1.04
CCCc1c(COc2ccc(Cc3nnn[nH]3)cc2)ccc(C(C)=O)c1O,inactive: -0.897,inactive: -2.06,inactive: 1.8
Cc1cc(-c2ccccc2)nnc1NCCN1CCOCC1 [minaprine],inactive: 1.69,inactive: -1.72,inactive: 1.6
Nc1ncnc2c1ncn2CC(O)CF (stereo unspecified),inactive: 1.11,–,active: 8.11
Nc1ncnc2c1ncn2CC(O)CF (stereo unspecified) [metabolite of FPMPA],–,inactive: -0.698,–
C[C@H]1C[C@H]2[C@@H]3CCC4=CC(=O)C=C[C@]4(C)[C@@]3(F)[C@@H](O)C[C@]2(C)[C@@]1(O)C(=O)COP(=O)(O)O [betamethasone phosphate],inactive: 0.82,inactive: -0.916,inactive: 1.1
O=C(O)c1cc(-c2ccc(F)cc2F)ccc1O,inactive: 0.445,inactive: 0.694,inactive: -1.57
CNC(=O)n1ccc2cc(Oc3ccnc(NC(=O)c4ccc(C5CCN(CCO)CC5)cc4)c3)c(OCCOC)cc21,inactive: -1.25,inactive: -1.32,inactive: -0.675
CC[C@@]1(O)C(=O)OCc2c1cc1n(c2=O)Cc2c-1nc1cc3c(cc1c2CN1CCN(C)CC1)OCCO3,inactive: -1.48,inactive: -1.6,inactive: -1.63
O=C([O-])C1=C(C[n+]2ccc(CCS(=O)(=O)[O-])cc2)CS[C@@H]2[C@H](NC(=O)[C@H](NC(=O)c3nc[nH]c3C(=O)O)c3ccccc3)C(=O)N12 [Cefpimizole Disodium Salt],inactive: -1.77,inactive: -1.06,inactive: 0.322
CCCn1c(=O)c(C(=O)NNC(=O)C(C)C)c(O)c2ccccc21,inactive: -0.496,inactive: 1.81,inactive: -0.208
O=C(c1ccccc1Nc1ccncc1)N1CCCCC1 [ofornine],inactive: 0.71,inactive: -1.43,inactive: -0.311
CC(C)NNC(=O)COc1ccc(Cl)cc1,inactive: 0.462,inactive: -1.86,inactive: -0.309
CCCCNc1c2c(nc3ccccc13)CC(C)(C)CC2O (stereo unspecified),inactive: -1.15,inactive: -0.72,inactive: 0.0913
O=C(c1ccc(-c2nc(C3CC3)no2)cc1)N1CCCC2CCCC21 (stereo unspecified),inactive: -3.1,inactive: 0.0615,inactive: -0.612
CC(C)(Oc1ccc(C2CCCc3ccccc32)cc1)C(=O)O (stereo unspecified) [Nafenopin],inactive: -0.993,–,inactive: 4.36
CC[C@H](C)[C@H](NC(=O)[C@H](CO)NC(=O)[C@H](C)NC(=O)[C@H](CC(=O)O)NC(=O)[C@H](CC(C)C)NC(=O)[C@H](CO)NC(=O)[C@@H](N)[C@@H](C)O)C(=O)N[C@H](C(=O)N[C@@H](Cc1c[nH]c2ccccc12)C(=O)N[C@@H](C)C(=O)N[C@@H](CCSC)C(=O)N[C@@H](CCSC)C(=O)N[C@@H](CCC(N)=O)C(=O)N[C@@H](CC(N)=O)C(=O)O)[C@@H](C)CC [Disitertide],inactive: -1.37,inactive: 1.2,inactive: 0.0615
Cc1onc(-c2ccc(F)cc2)c1COc1ccc(C(=O)N2CCS(=O)(=O)CC2)cn1 [Basmisanil],inactive: -0.827,inactive: 0.884,active: 11.1
COc1ccccc1C(=O)N1CCC(N2CCCC2=O)CC1,inactive: -0.352,–,inactive: 0.118
O=C1c2ccccc2C(=O)C1c1ccc(Cl)cc1,inactive: -0.669,inactive: -0.21,inactive: 0.249
O=C1CCCC(=O)C1C(=O)c1ccc(C(F)(F)F)cc1[N+](=O)[O-] [nitisi],inactive: -1.41,inactive: -1.38,inactive: 1.16

Compound,TEAD-luciferase reporter activity (compound concentration: 200 nM),TEAD-luciferase reporter activity (compound concentration: 2 uM),TEAD-luciferase reporter activity (compound concentration: 10 uM)
c1ccc(C(CCN2CCCCC2)c2ccccc2)cc1,inactive: 1.28,inactive: 1.09,inactive: 0.247
CC1(C)CCC2=C(O1)c1ccccc1C(=O)C2=O [beta-Lapachone],inactive: -0.048,inactive: -0.943,inactive: -0.166
CS(=O)(=O)c1ccc(-c2cc(C#N)nn2-c2ccc(F)cc2)cc1,inactive: -0.261,inactive: -2.46,inactive: -1.48
COc1cc(OC)cc(N(CCNC(C)C)c2ccc3ncc(-c4cnn(C)c4)nc3c2)c1 [Erdafitinib],inactive: -1.22,inactive: -0.831,inactive: -1.24
CN1CCOC(c2ccccc2)c2ccccc2C1 (stereo unspecified) [nefopam],inactive: -0.716,inactive: -0.588,inactive: 0.518
O=C(/C=C\n1cnc(-c2cc(C(F)(F)F)cc(C(F)(F)F)c2)n1)NNc1cnccn1 [Selinexor],active: 5.68,–,inactive: 0.533
C[C@@H](c1nc(-c2ccc(C#N)cc2)cs1)C(O)(Cn1cncn1)c1ccc(F)cc1F (stereo partly specified) [Ravuconazole],inactive: -1.11,inactive: 0.289,inactive: -1.19
O=C(NCCO[N+](=O)[O-])c1cccnc1,inactive: -1.39,–,inactive: 0.0933
O=C(NCCO[N+](=O)[O-])c1cccnc1 [nicorandil],–,inactive: -1.99,–
CCn1c(-c2c(Cl)cc(O)cc2Cl)cc2c(Cl)cc(O)cc21,inactive: -1.66,inactive: 2.49,active: 5.03
Cc1cc(COc2ccc([C@]3(N)CCN([C@H](CC(C)C)C(=O)NO)C3=O)cc2)c2ccccc2n1,inactive: 2.64,inactive: -0.161,inactive: -0.286
CNC(=O)c1cnc2n1CCc1ccccc1C21CCNCC1,inactive: -1.05,inactive: -0.227,inactive: 0.0557
CC(C)Cc1ccc([C@@H](C)C(=O)NS(C)(=O)=O)cc1 [Reparixin],inactive: -0.53,inactive: 0.5,inactive: 0.454
Cc1ccc2c(c1)C(OC1CCN(C)CC1)c1ccccc1CS2 (stereo unspecified),inactive: -1.13,inactive: -0.553,inactive: 0.0911
CCCCC1=NC2(CCCC2)C(=O)N1Cc1ccc(-c2ccccc2-c2nnn[nH]2)cc1 [Irbesartan],inactive: -1.13,–,inactive: -0.0231
"CCCCC1=NC2(CCCC2)C(=O)N1Cc1ccc(-c2ccccc2-c2nnn[nH]2)cc1 [diabetic nephropathy therapy, Dimerix]",–,inactive: -0.0521,–
CCC(=O)O[C@]1(C(=O)SCCl)[C@H](C)C[C@H]2C3C[C@H](F)C4=CC(=O)C=CC4(C)[C@@]3(F)[C@@H](O)CC21C (stereo partly specified),inactive: -0.64,inactive: 1.11,inactive: 2.66
N#Cc1ccc2[nH]c(O)c(-c3ccc(CN4CCOCC4)cn3)c2c1,inactive: -1.52,inactive: -1.31,inactive: -1.7
COc1cc(F)cc2c1-c1ccc(F)cc1C21NC(=O)NC1=O (stereo unspecified),inactive: -0.981,inactive: -0.769,inactive: -0.324
NC1(c2ccc(-c3nc4ccn5c(=O)[nH]nc5c4cc3-c3ccccc3)cc2)CCC1,inactive: -0.689,inactive: 2.35,inactive: 2.38
O=C(C1CCCC1)N1CCC(C(=O)N2CCC(c3ccccc3)CC2)CC1,inactive: 2.45,–,inactive: -0.752
OC(CCCN1CCC(O)(c2ccc(Cl)cc2)CC1)c1ccc(F)cc1 (stereo unspecified),inactive: -0.575,inactive: 0.672,inactive: 0.326
C[C@@H](NC(=O)[C@@H](CCCNC(=N)N)NC(=O)C(c1ccccc1)c1ccccc1)c1ccc(O)cc1,inactive: -2.37,inactive: 0.0416,inactive: -0.493
Nc1nccc(-c2c(-c3ccc(F)cc3)ncn2C2CCNCC2)n1,inactive: -1.26,inactive: -2.26,inactive: -0.779
O=C(NC1CCCN(c2nc3ncccc3o2)C1)c1ccccc1 (stereo unspecified),inactive: 4.86,–,inactive: 2.31
CC[C@]1(c2cccc(NS(C)(=O)=O)c2)[C@@H]2CN(CC3(O)Cc4ccccc4C3)C[C@@H]21,inactive: 4.33,inactive: -0.654,inactive: 1.2
Cc1ccc(-c2c3n(c(=O)c4ncccc24)CC[C@H](C)CN(Cc2cc(C(F)(F)F)cc(C(F)(F)F)c2)C3=O)cc1,inactive: -0.808,inactive: 0.571,inactive: 1.83

# 3 entries from above, with bars between the fields.
Compound | TEAD-luciferase reporter activity (compound concentration: 200 nM) | TEAD-luciferase reporter activity (compound concentration: 2 uM) | TEAD-luciferase reporter activity (compound concentration: 10 uM)
c1ccc(C(CCN2CCCCC2)c2ccccc2)cc1 | inactive: 1.28 | inactive: 1.09 | inactive: 0.247
CC1(C)CCC2=C(O1)c1ccccc1C(=O)C2=O [beta-Lapachone] | inactive: -0.048 | inactive: -0.943 | inactive: -0.166
CS(=O)(=O)c1ccc(-c2cc(C#N)nn2-c2ccc(F)cc2)cc1 | inactive: -0.261 | inactive: -2.46 | inactive: -1.48

# Reference: the supplement of paper PMC10735217
